{"source": "PubChem BioAssay AID504791 – Drosophila RNAi Screening Center | 2011", "assay": "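Genes whose knock-down strengthens or weakens small-RNA reporter silencing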 (primary screen)", "cell system": "Drosophila S2-derived reporter cells", "reagents": "long dsRNA against Drosophila genes, about 150-250 ng dsRNA per well (siRNA assay); about 80-120 ng (miRNA assay)", "timing": "about 5 days (siRNA assay); about 4 days (miRNA assay)", "challenge": "copper sulfate induction of reporters: 25 µM (siRNA assay); 200 mM stated (miRNA assay), 1-2 days before reading", "measurement": "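Per-well ratio of Renilla over firefly light, expressed relative to that plate's average ratio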", "hit rule": "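a well was a first-pass pick when its plate-scaled ratio rose above 1.5 (siRNA assay) or 1.6 (miRNA assay), or dropped below 0.6; a gene counted only if two separate dsRNAs agreed on retest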", "note": "The deposit covers about 23,000 reagents; below is an unselected part of those with a known target gene and a result. In the full data, 199 (0.86%) got an active call. 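Plate-scaled ratios behind the calls are not deposited; printed light signals are raw; many rows marked increased or decreased are still called inactive.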 A plus sign joins genes that one reagent is predicted to hit. The record does not give: the direction of the score."}
The first 2 records, ahead of the listing:
{"gene":"Ccs (Copper chaperone for superoxide dismutase)","dsRNA":"DRSC06692","stable assay Renilla, run 1 (luminescence)":6632,"stable assay firefly, run 1 (luminescence)":3.70e5,"Call":"inactive"}
{"gene":"meigo (medial glomeruli)","dsRNA":"DRSC15877","stable assay Renilla, run 1 (luminescence)":6435,"stable assay firefly, run 1 (luminescence)":3.59e5,"Call":"inactive"}

The list itself, from the start:
{"gene":"Ccs (Copper chaperone for superoxide dismutase)","dsRNA":"DRSC06692","stable assay Renilla, run 1 (luminescence)":6632,"stable assay firefly, run 1 (luminescence)":3.70e5,"Call":"inactive"}
{"gene":"meigo (medial glomeruli)","dsRNA":"DRSC15877","stable assay Renilla, run 1 (luminescence)":6435,"stable assay firefly, run 1 (luminescence)":3.59e5,"Call":"inactive"}
{"gene":"CG31445","dsRNA":"DRSC14443","stable assay Renilla, run 1 (luminescence)":8227,"stable assay firefly, run 1 (luminescence)":5.97e5,"Call":"inactive"}
{"gene":"CG9162 (retired record)","dsRNA":"DRSC03151","stable assay Renilla, run 1 (luminescence)":20367,"stable assay firefly, run 1 (luminescence)":5.04e5,"Call":"inactive"}
{"gene":"retm (real-time)","dsRNA":"DRSC03252","stable assay Renilla, run 1 (luminescence)":28828,"stable assay firefly, run 1 (luminescence)":4.03e5,"Call":"inactive"}
{"gene":"CG8197","dsRNA":"DRSC07105","stable assay Renilla, run 1 (luminescence)":5163,"stable assay firefly, run 1 (luminescence)":2.71e5,"Call":"inactive"}
{"gene":"Pgant6 (Polypeptide N-Acetylgalactosaminyltransferase 6)","dsRNA":"DRSC08552","stable assay Renilla, run 1 (luminescence)":11002,"stable assay firefly, run 1 (luminescence)":5.60e5,"Call":"inactive"}
{"gene":"Cpr65Ea (Cuticular protein 65Ea)","dsRNA":"DRSC11027","stable assay Renilla, run 1 (luminescence)":6706,"stable assay firefly, run 1 (luminescence)":3.50e5,"Call":"inactive"}
{"gene":"pyr (pyramus)","dsRNA":"DRSC06319","stable assay Renilla, run 1 (luminescence)":4696,"stable assay firefly, run 1 (luminescence)":3.28e5,"Call":"inactive"}
{"gene":"pyr (pyramus)","dsRNA":"DRSC22520","stable assay Renilla, run 1 (luminescence)":5682,"stable assay firefly, run 1 (luminescence)":5.51e5,"Call":"inactive"}
{"gene":"Cnx99A + Cnx14D","dsRNA":"DRSC16610","stable assay Renilla, run 1 (luminescence)":6067,"stable assay firefly, run 1 (luminescence)":3.79e5,"Call":"inactive"}
{"gene":"Alms1b + Alms1a","dsRNA":"DRSC18559","stable assay Renilla, run 1 (luminescence)":8277,"stable assay firefly, run 1 (luminescence)":5.38e5,"Call":"inactive"}
{"gene":"Su(var)3-3 (Suppressor of variegation 3-3)","dsRNA":"DRSC10250","stable assay Renilla, run 1 (luminescence)":7763,"stable assay firefly, run 1 (luminescence)":3.10e5,"Call":"inactive"}
{"gene":"Or83a (Odorant receptor 83a)","dsRNA":"DRSC12357","stable assay Renilla, run 1 (luminescence)":7479,"stable assay firefly, run 1 (luminescence)":3.30e5,"Call":"inactive"}
{"gene":"Ir76b (Ionotropic receptor 76b)","dsRNA":"DRSC10831","stable assay Renilla, run 1 (luminescence)":6970,"stable assay firefly, run 1 (luminescence)":3.78e5,"Call":"inactive"}
{"gene":"Incenp (Inner centromere protein)","dsRNA":"DRSC06116","stable assay Renilla, run 1 (luminescence)":13091,"stable assay firefly, run 1 (luminescence)":1.13e6,"Call":"inactive"}
{"gene":"Incenp (Inner centromere protein)","dsRNA":"DRSC21950","stable assay Renilla, run 1 (luminescence)":9721,"stable assay firefly, run 1 (luminescence)":4.94e5,"Call":"inactive"}
{"gene":"CG33221 (retired record)","dsRNA":"DRSC21201","stable assay Renilla, run 1 (luminescence)":4718,"stable assay firefly, run 1 (luminescence)":3.70e5,"Call":"inactive"}
{"gene":"CG42238","dsRNA":"DRSC03180","stable assay Renilla, run 1 (luminescence)":19059,"stable assay firefly, run 1 (luminescence)":1.26e6,"Call":"inactive"}
{"gene":"CG14015","dsRNA":"DRSC02346","stable assay Renilla, run 1 (luminescence)":8295,"stable assay firefly, run 1 (luminescence)":5.81e5,"Call":"inactive"}
{"gene":"CG14546","dsRNA":"DRSC14890","stable assay Renilla, run 1 (luminescence)":6478,"stable assay firefly, run 1 (luminescence)":2.62e5,"Call":"inactive"}
{"gene":"Xrcc2 (X-ray repair cross complementing 2)","dsRNA":"DRSC19984","stable assay Renilla, run 1 (luminescence)":5882,"stable assay firefly, run 1 (luminescence)":5.28e5,"Call":"inactive"}
{"gene":"CG10750","dsRNA":"DRSC02105","stable assay Renilla, run 1 (luminescence)":2.80e5,"stable assay firefly, run 1 (luminescence)":1.50e6,"Call":"inactive"}
{"gene":"ScsbetaG (Succinyl-coenzyme A synthetase beta subunit, GDP-forming)","dsRNA":"DRSC11294","stable assay Renilla, run 1 (luminescence)":6387,"stable assay firefly, run 1 (luminescence)":3.68e5,"Call":"inactive"}
{"gene":"hdly (hadley)","dsRNA":"DRSC15849","stable assay Renilla, run 1 (luminescence)":7354,"stable assay firefly, run 1 (luminescence)":4.46e5,"Call":"inactive"}
{"gene":"svp (seven up)","dsRNA":"DRSC12899","stable assay Renilla, run 1 (luminescence)":4332,"stable assay firefly, run 1 (luminescence)":3.38e5,"Call":"inactive"}
{"gene":"svp (seven up)","dsRNA":"DRSC15311","stable siRNA reporter change":"reporter ratio raised past the hit cutoff","stable assay Renilla, run 1 (luminescence)":5095,"stable assay firefly, run 1 (luminescence)":1.74e5,"Call":"inactive"}
{"gene":"svp (seven up)","dsRNA":"DRSC17075","stable assay Renilla, run 1 (luminescence)":2760,"stable assay firefly, run 1 (luminescence)":3.21e5,"Call":"inactive"}
